This is an account of results in the supplement of paper PMC6411743.

± gives the standard deviation of the averaged measurements. This is a selection; strong and weak results do not stand in their true shares.

Common to all, as to experiment: NP40-soluble protein abundance relative to vehicle (solubility fold change) (ratio); higher = more soluble protein in presence of ATP
Assay [1] addresses T1, B7WPL9 and related entries (UniProt Q6PFW1).
T1 sequence (whole entry): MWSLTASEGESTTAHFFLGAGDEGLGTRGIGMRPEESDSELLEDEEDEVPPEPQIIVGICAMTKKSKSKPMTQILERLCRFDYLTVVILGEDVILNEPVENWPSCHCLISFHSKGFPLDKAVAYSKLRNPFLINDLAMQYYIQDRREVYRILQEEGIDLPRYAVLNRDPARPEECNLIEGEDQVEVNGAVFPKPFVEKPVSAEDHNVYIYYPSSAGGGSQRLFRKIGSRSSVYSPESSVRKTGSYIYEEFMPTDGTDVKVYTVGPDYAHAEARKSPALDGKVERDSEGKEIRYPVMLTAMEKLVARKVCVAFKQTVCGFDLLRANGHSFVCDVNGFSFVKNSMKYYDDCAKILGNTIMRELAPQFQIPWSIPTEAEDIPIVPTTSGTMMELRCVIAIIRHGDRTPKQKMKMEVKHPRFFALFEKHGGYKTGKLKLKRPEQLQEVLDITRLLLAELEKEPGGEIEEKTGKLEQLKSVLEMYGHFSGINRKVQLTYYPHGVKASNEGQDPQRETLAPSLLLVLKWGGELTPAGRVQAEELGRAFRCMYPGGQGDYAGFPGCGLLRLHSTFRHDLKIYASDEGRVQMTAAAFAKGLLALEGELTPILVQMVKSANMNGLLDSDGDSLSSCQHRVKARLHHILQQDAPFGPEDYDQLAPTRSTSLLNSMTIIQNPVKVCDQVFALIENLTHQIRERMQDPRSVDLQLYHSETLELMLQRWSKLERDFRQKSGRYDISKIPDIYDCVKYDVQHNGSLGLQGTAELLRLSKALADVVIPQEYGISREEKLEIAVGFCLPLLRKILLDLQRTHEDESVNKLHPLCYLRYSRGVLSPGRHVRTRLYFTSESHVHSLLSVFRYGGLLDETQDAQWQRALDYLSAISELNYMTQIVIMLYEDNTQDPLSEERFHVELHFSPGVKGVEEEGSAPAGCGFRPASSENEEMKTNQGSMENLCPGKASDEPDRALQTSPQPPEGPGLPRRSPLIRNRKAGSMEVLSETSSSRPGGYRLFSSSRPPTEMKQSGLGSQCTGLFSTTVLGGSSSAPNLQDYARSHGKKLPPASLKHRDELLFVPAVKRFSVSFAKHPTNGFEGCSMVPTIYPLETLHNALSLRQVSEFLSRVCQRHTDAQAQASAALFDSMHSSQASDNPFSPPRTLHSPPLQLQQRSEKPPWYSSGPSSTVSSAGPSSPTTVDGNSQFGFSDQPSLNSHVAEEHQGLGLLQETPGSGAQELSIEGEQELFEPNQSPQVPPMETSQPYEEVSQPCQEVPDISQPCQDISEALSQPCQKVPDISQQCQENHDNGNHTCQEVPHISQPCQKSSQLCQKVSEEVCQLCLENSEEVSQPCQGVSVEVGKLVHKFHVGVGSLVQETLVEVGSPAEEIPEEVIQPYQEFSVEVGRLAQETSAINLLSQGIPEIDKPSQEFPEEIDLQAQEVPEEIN
The essentials:
(§1)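 Across three independent experiments, values are fold changes against the detergent-processed vehicle for each replicate, based on vsn-normalised intensities. The samples were Jurkat crude lysate treated with eight concentrations (0.1 to 10 mM) for 10 min at room temperature and then 3 min at 37 °C. Lysate was solubilised with 0.8% NP40 and benzonase, ultracentrifuged, and the supernatant analysed by TMT-labelled LC-MS/MS.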

The target in assay [2] is T2, B7Z4W5 (UniProt Q16773).
T2 sequence (whole entry): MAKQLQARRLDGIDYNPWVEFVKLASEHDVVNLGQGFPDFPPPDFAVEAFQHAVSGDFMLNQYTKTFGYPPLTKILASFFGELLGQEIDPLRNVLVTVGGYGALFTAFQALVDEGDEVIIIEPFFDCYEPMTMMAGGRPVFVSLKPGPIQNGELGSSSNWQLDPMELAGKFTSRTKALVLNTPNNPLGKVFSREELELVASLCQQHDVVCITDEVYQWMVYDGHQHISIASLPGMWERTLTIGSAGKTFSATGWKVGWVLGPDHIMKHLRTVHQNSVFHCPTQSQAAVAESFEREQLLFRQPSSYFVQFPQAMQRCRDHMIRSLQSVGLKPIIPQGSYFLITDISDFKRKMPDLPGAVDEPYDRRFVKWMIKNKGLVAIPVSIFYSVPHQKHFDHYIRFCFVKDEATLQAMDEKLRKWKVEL
In outline: as §1

Assay [3] deals with T3, B7ZL14 and related entries (UniProt Q96RU3).
T3 sequence (whole entry): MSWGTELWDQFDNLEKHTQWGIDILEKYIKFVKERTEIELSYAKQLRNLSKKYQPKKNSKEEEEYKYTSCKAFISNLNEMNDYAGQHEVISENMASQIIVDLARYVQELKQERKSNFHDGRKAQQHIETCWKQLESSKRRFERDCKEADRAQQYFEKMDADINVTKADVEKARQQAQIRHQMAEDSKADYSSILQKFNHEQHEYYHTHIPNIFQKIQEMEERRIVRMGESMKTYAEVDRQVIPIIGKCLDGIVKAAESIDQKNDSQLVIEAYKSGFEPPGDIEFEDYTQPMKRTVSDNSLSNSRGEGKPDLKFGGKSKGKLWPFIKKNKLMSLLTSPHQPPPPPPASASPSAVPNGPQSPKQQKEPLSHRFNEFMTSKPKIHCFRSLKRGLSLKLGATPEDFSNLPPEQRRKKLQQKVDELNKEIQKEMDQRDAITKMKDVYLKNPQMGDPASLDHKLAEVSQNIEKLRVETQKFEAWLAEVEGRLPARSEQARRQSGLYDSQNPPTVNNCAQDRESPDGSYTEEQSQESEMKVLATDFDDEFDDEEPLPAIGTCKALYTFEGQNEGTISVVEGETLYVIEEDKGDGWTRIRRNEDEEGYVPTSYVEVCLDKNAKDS
In outline: as §1

The target in assay [4] is T4, C9J494 and related entries (UniProt Q9H000).
T4 sequence (whole entry): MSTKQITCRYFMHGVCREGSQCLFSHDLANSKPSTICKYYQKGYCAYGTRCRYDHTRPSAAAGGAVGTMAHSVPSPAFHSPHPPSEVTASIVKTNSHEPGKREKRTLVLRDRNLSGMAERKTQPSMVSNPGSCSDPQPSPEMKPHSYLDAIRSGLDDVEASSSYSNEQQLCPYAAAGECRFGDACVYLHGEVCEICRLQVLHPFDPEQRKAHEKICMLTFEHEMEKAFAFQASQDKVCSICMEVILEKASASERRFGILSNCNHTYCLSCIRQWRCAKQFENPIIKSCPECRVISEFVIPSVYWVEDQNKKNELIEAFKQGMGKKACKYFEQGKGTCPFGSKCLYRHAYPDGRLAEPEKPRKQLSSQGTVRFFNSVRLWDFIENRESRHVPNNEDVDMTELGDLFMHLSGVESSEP
In outline:
as §1

As to `Nc1ncnc2c1ncn2[C@@H]1O[C@H](COP(=O)(O)OP(=O)(O)OP(=O)(O)O)[C@@H](O)[C@H]1O` [adenosine triphosphate], the NP40-soluble protein abundance in assay [1] (concentration: 1mM) is 0.952 ± 0.031; in assay [1] (concentration: 2mM) it was 0.962 ± 0.054; in assay [1] (concentration: 4mM), 0.986 ± 0.025; in assay [1] (concentration: 6mM), 0.922 ± 0.025; in assay [1] (concentration: 8mM) it was 0.939 ± 0.034; in assay [1] (concentration: 10mM) it was 0.959 ± 0.075. Further, the NP40-soluble protein abundance stood at 1.05 ± 0.25 in assay [2] (concentration: 1mM); 1.02 ± 0.2 in assay [2] (concentration: 2mM); 0.967 ± 0.14 in assay [2] (concentration: 4mM); 0.842 ± 0.25 in assay [2] (concentration: 6mM); 0.982 ± 0.087 in assay [2] (concentration: 8mM); 1.04 ± 0.1 in assay [2] (concentration: 10mM). The NP40-soluble protein abundance in assay [3] (concentration: 1mM) is 0.93 ± 0.072; in assay [3] (concentration: 2mM) it was 0.942 ± 0.037; in assay [3] (concentration: 4mM) it was 0.918 ± 0.029; in assay [3] (concentration: 6mM), 0.976 ± 0.036; in assay [3] (concentration: 8mM) it was 0.915 ± 0.027; in assay [3] (concentration: 10mM), 0.912 ± 0.019. The NP40-soluble protein abundance in assay [4] (concentration: 1mM) stood at 1.05 ± 0.026; in assay [4] (concentration: 2mM), 1.06 ± 0.026; in assay [4] (concentration: 4mM), 1.07 ± 0.033; in assay [4] (concentration: 6mM), 1.06 ± 0.049; in assay [4] (concentration: 8mM), 1.08 ± 0.059; in assay [4] (concentration: 10mM) it was 1.09 ± 0.053.
